Results deposited as PubChem BioAssay AID743454 (Peter MacCallum Cancer Centre, 2014).

- Assay: 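Search for knock-downs that restore vorinostat killing in resistant colon cancer cells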 (primary screen)
- System: human HCT116-VR colon cancer cells, selected for vorinostat resistance
- Knock-down reagent: siRNA pool against human genes, 40 nM siRNA pool
- Time to read-out: vorinostat for 24 h, read-out about 72 h after transfection
- Treatment: vorinostat at 2.5 µM final
- Read-out: 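Cell viability by CellTiter-Fluor and caspase 3/7 activity by luminescence, each scaled to mock wells per plate, duplicates averaged, then robust z-scored over all plates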
- Direction: viability robust z-score: higher = more viable cells than screen typical; caspase robust z-score: higher = more caspase 3/7 activity than screen typical
- Hit rule: 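a knock-down is a hit when classed RV1 or RV2 for lowered viability, or CA1 or CA2 for caspase activation; those lethal without drug were dropped; hits were retested singly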
Here is a random part of about 18,000 reagents. 450 of them (2.5%) count as active. 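Single biological run; no consistent viability z cut-off exists, so the class columns, not z-scores, define the calls.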 The numbers tell different reagents against one gene apart.

HAVCR2 (hepatitis A virus cellular receptor 2)
- viability hit class: no change
- caspase hit class: no change
- viability robust z-score: -0.7
- caspase robust z-score: 0.57
- Call: inactive

TNIP3 (TNFAIP3 interacting protein 3)
- viability hit class: no change
- caspase hit class: no change
- viability robust z-score: -1.56
- caspase robust z-score: -1.04
- Call: inactive

MCAT
- viability hit class: no change
- caspase hit class: no change
- viability robust z-score: 0.43
- caspase robust z-score: -1.07
- Call: inactive

ASAH2 (N-acylsphingosine amidohydrolase 2)
- viability hit class: no change
- caspase hit class: no change
- viability robust z-score: 0.39
- caspase robust z-score: -0.92
- Call: inactive

ANKFY1 (ankyrin repeat and FYVE domain containing 1)
- viability hit class: no change
- caspase hit class: no change
- viability robust z-score: -1.41
- caspase robust z-score: 1.7
- Call: inactive

PSMG3 (proteasome assembly chaperone 3)
- viability hit class: no change
- caspase hit class: no change
- viability robust z-score: 0.06
- caspase robust z-score: 0.73
- Call: inactive

LARS2 (leucyl-tRNA synthetase 2, mitochondrial)
- viability hit class: no change
- caspase hit class: no change
- viability robust z-score: 1.3
- caspase robust z-score: -0.74
- Call: inactive

ZC3H18 (zinc finger CCCH-type containing 18)
- viability hit class: no change
- caspase hit class: no change
- viability robust z-score: -0.88
- caspase robust z-score: 1.64
- Call: inactive

TLCD3A (TLC domain containing 3A)
- viability hit class: no change
- caspase hit class: no change
- viability robust z-score: 0.14
- caspase robust z-score: 1.59
- Call: inactive

ERCC4 (ERCC excision repair 4, endonuclease catalytic subunit)
- viability hit class: no change
- caspase hit class: no change
- viability robust z-score: 0.56
- caspase robust z-score: -0.55
- Call: inactive

KLHL41 (kelch like family member 41)
- viability hit class: no change
- caspase hit class: no change
- viability robust z-score: 1.02
- caspase robust z-score: -0.84
- Call: inactive

UROS (uroporphyrinogen III synthase)
- viability hit class: no change
- caspase hit class: no change
- viability robust z-score: -0.25
- caspase robust z-score: -0.67
- Call: inactive

SUV39H1 (SUV39H1 histone lysine methyltransferase)
- viability hit class: no change
- caspase hit class: no change
- viability robust z-score: -0.38
- caspase robust z-score: -0.45
- Call: inactive

MECOM (MDS1 and EVI1 complex locus) #1
- viability hit class: no change
- caspase hit class: no change
- viability robust z-score: -0.18
- caspase robust z-score: 0.02
- Call: inactive

MECOM (MDS1 and EVI1 complex locus) #2
- viability hit class: no change
- caspase hit class: no change
- viability robust z-score: 0.86
- caspase robust z-score: -0.94
- Call: inactive

GALNTL6 (polypeptide N-acetylgalactosaminyltransferase like 6)
- viability hit class: no change
- caspase hit class: no change
- viability robust z-score: 0.47
- caspase robust z-score: 0.34
- Call: inactive

EIF4G1 (eukaryotic translation initiation factor 4 gamma 1)
- viability hit class: no change
- caspase hit class: no change
- viability robust z-score: -2.58
- caspase robust z-score: -1.7
- Call: inactive

TMA16 (translation machinery associated 16 homolog)
- viability hit class: no change
- caspase hit class: no change
- viability robust z-score: 0.64
- caspase robust z-score: 0.28
- Call: inactive

OR9I1 (olfactory receptor family 9 subfamily I member 1)
- viability hit class: no change
- caspase hit class: no change
- viability robust z-score: -1.04
- caspase robust z-score: -1.22
- Call: inactive

PRP4K (pre-mRNA processing factor kinase PRP4K)
- viability hit class: no change
- caspase hit class: no change
- viability robust z-score: -2.04
- caspase robust z-score: 2.17
- Call: inactive

SSUH2 (ssu-2 homolog)
- viability hit class: no change
- caspase hit class: no change
- viability robust z-score: -0.38
- caspase robust z-score: 1.35
- Call: inactive

Records above whose gene name begins with S or s:
SUV39H1 (SUV39H1 histone lysine methyltransferase)
- viability hit class: no change
- caspase hit class: no change
- viability robust z-score: -0.38
- caspase robust z-score: -0.45
- Call: inactive

SSUH2 (ssu-2 homolog)
- viability hit class: no change
- caspase hit class: no change
- viability robust z-score: -0.38
- caspase robust z-score: 1.35
- Call: inactive
